From the supplement of paper PMC10849652
The other results are listed elsewhere or left out.

Chains of the proteins cited; added tags and fusions are not shown. Lines headed by an entry give the natural chain unless they say otherwise; changes in a name come on top.
UniProt Q01085: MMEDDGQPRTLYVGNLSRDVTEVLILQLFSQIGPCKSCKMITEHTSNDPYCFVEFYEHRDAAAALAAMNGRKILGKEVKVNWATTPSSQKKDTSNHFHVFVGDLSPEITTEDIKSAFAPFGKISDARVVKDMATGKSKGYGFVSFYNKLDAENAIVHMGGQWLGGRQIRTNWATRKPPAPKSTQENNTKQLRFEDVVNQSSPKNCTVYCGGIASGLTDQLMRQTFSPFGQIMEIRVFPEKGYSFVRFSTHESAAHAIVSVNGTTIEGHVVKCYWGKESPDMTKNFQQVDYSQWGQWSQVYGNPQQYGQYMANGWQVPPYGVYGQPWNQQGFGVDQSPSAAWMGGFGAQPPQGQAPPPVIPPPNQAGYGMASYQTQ
UniProt Q04726: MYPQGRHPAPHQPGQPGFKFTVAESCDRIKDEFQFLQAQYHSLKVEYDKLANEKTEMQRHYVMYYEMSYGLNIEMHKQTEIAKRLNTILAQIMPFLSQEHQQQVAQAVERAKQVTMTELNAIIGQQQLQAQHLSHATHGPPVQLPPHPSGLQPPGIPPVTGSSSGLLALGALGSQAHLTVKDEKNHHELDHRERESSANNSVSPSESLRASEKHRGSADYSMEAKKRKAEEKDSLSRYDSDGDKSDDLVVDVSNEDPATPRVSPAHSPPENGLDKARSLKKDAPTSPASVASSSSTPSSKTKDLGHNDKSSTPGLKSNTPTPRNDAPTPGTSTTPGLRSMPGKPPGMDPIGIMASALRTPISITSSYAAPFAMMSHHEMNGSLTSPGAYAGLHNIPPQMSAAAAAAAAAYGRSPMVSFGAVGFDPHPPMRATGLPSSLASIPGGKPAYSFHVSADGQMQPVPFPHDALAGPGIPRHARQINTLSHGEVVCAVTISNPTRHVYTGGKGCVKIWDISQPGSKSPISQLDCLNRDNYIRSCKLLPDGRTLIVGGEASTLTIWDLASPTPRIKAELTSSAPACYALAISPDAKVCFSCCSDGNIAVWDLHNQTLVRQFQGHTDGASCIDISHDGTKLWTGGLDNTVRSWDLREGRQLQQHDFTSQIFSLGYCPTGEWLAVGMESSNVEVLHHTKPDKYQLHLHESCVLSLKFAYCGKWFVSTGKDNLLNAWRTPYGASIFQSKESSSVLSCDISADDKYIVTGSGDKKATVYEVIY
UniProt P21980: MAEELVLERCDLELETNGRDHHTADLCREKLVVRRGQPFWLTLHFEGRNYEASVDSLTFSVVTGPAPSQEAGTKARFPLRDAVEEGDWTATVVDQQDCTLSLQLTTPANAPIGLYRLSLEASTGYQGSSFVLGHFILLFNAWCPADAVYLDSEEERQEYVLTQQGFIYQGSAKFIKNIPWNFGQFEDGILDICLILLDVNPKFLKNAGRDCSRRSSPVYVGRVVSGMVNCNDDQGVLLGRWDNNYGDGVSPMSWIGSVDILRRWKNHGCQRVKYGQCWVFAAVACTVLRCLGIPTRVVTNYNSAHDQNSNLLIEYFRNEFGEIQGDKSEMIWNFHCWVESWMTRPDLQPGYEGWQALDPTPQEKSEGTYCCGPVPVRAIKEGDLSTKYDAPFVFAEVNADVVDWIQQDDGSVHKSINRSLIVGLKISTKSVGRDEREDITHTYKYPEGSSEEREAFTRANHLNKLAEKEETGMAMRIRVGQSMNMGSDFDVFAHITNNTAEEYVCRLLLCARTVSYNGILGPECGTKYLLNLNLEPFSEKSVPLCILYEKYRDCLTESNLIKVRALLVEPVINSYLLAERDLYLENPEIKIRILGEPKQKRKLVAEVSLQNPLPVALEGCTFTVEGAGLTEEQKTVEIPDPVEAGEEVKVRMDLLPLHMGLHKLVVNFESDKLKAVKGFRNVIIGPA
UniProt O95551: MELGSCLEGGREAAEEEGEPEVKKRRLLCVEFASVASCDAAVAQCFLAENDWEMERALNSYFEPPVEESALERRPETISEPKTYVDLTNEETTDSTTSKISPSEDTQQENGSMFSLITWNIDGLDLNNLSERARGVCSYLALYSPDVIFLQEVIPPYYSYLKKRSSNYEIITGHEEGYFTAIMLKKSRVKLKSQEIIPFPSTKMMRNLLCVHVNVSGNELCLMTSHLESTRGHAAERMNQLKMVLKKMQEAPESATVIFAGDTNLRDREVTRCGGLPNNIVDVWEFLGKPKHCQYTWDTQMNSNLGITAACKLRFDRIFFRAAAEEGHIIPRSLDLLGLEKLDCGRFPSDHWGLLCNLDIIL
UniProt P35443: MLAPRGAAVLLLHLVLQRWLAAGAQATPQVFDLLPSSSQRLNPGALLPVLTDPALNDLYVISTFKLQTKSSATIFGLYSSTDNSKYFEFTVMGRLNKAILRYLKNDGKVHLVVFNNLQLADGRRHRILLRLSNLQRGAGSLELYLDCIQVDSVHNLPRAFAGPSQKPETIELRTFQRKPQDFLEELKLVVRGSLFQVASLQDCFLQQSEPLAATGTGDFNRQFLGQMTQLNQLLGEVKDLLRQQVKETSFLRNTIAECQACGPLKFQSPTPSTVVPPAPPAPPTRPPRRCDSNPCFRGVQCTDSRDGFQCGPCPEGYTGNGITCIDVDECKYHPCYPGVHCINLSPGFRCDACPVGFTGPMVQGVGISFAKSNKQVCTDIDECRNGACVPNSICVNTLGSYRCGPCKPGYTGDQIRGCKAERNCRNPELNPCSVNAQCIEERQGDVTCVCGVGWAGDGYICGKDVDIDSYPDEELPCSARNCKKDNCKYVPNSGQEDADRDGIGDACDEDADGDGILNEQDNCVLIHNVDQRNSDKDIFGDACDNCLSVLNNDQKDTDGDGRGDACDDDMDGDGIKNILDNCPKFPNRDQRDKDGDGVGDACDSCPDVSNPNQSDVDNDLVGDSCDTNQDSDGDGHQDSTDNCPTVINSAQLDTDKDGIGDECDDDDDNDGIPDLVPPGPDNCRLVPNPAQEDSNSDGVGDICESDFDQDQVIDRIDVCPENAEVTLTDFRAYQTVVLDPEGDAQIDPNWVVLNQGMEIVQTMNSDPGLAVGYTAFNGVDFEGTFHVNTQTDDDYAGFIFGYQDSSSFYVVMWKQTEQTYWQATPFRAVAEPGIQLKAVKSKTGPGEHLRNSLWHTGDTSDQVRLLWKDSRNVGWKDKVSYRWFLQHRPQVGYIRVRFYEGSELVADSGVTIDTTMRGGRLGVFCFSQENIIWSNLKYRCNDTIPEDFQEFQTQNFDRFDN
UniProt Q9Y5L4: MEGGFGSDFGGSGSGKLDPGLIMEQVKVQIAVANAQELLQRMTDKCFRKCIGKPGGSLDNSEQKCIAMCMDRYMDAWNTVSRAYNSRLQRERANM
UniProt P02787, whole entry, looked up: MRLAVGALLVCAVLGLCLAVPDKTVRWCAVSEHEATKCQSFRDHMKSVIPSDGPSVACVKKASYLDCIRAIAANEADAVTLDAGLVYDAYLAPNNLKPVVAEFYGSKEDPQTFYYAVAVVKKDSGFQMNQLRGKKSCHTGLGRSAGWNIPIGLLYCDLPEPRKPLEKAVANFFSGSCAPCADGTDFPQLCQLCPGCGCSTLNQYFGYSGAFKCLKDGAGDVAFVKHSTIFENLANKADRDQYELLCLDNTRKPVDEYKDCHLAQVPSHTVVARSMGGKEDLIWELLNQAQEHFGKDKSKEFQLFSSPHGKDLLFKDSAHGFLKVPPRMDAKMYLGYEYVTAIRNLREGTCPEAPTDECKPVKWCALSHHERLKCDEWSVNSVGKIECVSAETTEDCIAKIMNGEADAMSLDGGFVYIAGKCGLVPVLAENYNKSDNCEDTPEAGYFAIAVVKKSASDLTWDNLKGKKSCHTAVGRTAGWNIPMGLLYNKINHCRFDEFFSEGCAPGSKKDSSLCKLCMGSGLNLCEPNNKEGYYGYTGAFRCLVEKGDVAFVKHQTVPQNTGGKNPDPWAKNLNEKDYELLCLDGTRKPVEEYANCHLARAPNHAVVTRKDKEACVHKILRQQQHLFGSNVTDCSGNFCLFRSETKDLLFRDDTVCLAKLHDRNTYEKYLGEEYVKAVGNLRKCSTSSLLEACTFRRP
UniProt Q13769: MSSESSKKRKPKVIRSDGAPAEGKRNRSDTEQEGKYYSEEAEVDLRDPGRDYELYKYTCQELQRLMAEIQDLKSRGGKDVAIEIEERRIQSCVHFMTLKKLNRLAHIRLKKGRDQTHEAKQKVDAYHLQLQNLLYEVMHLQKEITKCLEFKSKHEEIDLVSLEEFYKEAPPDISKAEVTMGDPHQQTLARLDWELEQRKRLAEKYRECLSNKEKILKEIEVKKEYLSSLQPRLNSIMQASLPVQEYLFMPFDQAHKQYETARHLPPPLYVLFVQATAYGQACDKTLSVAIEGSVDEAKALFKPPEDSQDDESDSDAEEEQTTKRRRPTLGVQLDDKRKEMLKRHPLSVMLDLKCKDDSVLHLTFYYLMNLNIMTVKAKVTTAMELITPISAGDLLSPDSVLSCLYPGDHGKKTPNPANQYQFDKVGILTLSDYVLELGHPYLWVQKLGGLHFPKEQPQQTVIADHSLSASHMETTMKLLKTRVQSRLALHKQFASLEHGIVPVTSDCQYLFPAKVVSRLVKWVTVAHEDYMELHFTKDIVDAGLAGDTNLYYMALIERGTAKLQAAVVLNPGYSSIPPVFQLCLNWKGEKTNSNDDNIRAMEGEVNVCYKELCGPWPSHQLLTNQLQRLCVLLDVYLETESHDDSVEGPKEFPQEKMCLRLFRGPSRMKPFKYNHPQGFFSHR
UniProt Q8TC07: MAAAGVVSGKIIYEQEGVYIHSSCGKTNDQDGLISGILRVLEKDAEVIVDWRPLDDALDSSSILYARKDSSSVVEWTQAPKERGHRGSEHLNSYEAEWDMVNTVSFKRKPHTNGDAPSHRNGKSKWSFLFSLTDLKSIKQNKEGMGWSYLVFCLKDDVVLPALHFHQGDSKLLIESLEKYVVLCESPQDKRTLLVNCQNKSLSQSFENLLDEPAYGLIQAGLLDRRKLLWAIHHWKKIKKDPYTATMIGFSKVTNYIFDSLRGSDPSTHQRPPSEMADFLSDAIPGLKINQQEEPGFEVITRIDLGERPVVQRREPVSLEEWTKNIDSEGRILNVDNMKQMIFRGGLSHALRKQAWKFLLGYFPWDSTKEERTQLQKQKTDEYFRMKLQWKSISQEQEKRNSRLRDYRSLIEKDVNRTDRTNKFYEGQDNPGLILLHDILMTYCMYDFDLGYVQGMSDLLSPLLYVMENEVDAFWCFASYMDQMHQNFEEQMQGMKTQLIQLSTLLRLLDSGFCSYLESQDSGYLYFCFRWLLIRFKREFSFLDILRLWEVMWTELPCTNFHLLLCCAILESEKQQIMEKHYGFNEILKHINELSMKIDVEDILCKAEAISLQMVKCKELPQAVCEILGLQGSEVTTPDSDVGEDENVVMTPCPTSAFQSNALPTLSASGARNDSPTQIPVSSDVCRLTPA
UniProt O14776: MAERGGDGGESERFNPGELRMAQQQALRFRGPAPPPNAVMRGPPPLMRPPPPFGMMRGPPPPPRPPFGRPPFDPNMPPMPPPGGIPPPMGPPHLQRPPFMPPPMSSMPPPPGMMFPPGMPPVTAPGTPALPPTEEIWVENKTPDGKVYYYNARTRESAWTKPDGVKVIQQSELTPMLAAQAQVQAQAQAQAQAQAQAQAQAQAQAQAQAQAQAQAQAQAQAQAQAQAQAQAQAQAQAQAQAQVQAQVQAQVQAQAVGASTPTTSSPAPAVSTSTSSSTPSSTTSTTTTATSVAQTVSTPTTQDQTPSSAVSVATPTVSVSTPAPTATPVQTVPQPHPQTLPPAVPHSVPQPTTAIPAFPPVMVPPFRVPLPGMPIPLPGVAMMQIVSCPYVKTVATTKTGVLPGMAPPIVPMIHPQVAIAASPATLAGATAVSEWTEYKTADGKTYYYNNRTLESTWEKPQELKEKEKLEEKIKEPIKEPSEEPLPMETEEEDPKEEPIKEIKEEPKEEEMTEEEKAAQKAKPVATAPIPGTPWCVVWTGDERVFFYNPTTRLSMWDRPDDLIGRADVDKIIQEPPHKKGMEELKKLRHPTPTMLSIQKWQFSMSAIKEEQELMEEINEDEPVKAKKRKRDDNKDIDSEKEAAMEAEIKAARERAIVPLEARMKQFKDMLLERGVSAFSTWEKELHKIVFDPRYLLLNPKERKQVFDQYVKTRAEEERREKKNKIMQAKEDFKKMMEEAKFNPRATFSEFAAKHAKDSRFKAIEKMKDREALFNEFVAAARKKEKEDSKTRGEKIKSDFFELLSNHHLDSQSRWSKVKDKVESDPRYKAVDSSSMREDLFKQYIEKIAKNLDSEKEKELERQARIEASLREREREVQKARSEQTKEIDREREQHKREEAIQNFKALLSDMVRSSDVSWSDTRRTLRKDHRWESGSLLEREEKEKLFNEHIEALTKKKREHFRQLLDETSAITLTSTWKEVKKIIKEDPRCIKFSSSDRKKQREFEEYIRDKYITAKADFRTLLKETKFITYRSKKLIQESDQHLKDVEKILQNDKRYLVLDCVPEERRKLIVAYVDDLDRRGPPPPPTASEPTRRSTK

Compound: Cc1ccc(-n2nc(C(C)(C)C)cc2NC(=O)Nc2ccc(OCCN3CCOCC3)c3ccccc23)cc1 [doramapimod]
Experiment: log2 fold change, soluble protein after heating vs DMSO (PISA); higher = thermal stabilisation; K562 cells, 10 uM, 30 min; active = over 0.2 and 3.5 SD of the protein, either way, in both replicates (recomputed)
Procedure, shortened: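 K562 cells at 2×10^6 cells/mL were exposed to 10 μM compound for 30 min, then aliquots were heated for 3 min across 48°C-58°C, pooled, and extracted in PBS containing 0.5% NP-40 at 4°C. The supernatant after 21,000xg for 90 min was taken as soluble protein and measured by TMTpro 16plex LC-MS/MS with channel sums equalised. Thermal stability is reported relative to control samples, with values from duplicates. Fold changes are given on a log2 scale.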

With TIAL1 isoform 2 (UniProt Q01085) as the target, how does the log2 fold change read?
The log2 fold change was inactive: -0.054.

With TLE3 isoform 4 (UniProt Q04726) as the target, how does the log2 fold change read?
Its log2 fold change is inactive: 0.005.

With TGM2 (UniProt P21980) as the target, how does the log2 fold change read?
Its log2 fold change is inactive: -0.037.

Which log2 fold change does the source give for TGFB1 (UniProt P01137) here?
Its log2 fold change is inactive: 0.002.

TDP2 isoform 2 (UniProt O95551) was tested. Which log2 fold change did it give?
The log2 fold change was inactive: 0.018.

TECR (UniProt Q9NZ01) was tested. Which log2 fold change did it give?
The log2 fold change was inactive: -0.095.

With TIMM22 (UniProt Q9Y584) as the target, how does the log2 fold change read?
Its log2 fold change is inactive: -0.091.

For THBS4 (UniProt P35443), which log2 fold change is on record?
The log2 fold change was inactive: -0.074.

How did the log2 fold change turn out when TERF2 (UniProt Q15554) was run?
Its log2 fold change is inactive: 0.025.

TICAM2 isoform 2 (UniProt Q86XR7) was tested. Which log2 fold change did it give?
The log2 fold change was inactive: -0.028.

With TIMM13 (UniProt Q9Y5L4) as the target, how does the log2 fold change read?
Its log2 fold change is inactive: 0.039.

For TBL1X (UniProt O60907), which log2 fold change is on record?
The log2 fold change was inactive: -0.042.

Which log2 fold change does the source give for TF (UniProt P02787) here?
The log2 fold change was inactive: 0.299.

With THOC5 (UniProt Q13769) as the target, how does the log2 fold change read?
The log2 fold change was inactive: 0.024.

How did the log2 fold change turn out when TBC1D15 isoform 3 (UniProt Q8TC07) was run?
The log2 fold change was inactive: 0.017.

How did the log2 fold change turn out when TESC (UniProt Q96BS2) was run?
Its log2 fold change is inactive: -0.074.

How did the log2 fold change turn out when TCERG1 (UniProt O14776) was run?
Its log2 fold change is inactive: -0.079.
